This note sets out measurements from PubChem BioAssay AID186 (DTP/NCI, 2004).

The mice bore no tumour; each value counts animals alive of those treated. Survivors were counted at the toxicity check, usually on the fifth day, unless a day is given; later deaths do not show. Schedules are NCI's codes, taken here to give the interval after Q, in days (D) or hours (H), and the number of doses after X. Some entries were tested several times; their values stand side by side, smallest first. Some schedules carry Z or #; the key to these is not given.

This experiment relates to B6D2F1 mice, nontumored toxicity test, survival. Kind of experiment: NCI In Vivo Anticancer Drug Screen. Data for tumor model Nontumored Animals (Toxicity Test) in B6D2F1 (BDF1) mice.

Consider `COc1cc(NS(C)(=O)=O)ccc1Nc1c2ccccc2nc2ccccc12`, for which the survivor count runs as follows: (dose: 0.5 mg/kg/injection, schedule: Q01DX009 (ip), vehicle: lactic acid) 8 of 8; (dose: 0.5 mg/kg/injection, schedule: Q03HX024 (oral), vehicle: lactic acid) 8 of 8; (dose: 1.0 mg/kg/injection, schedule: Q01DX009 (ip), vehicle: lactic acid) 8 of 8; (dose: 1.0 mg/kg/injection, schedule: Q01DX009 (oral), vehicle: lactic acid) 8 of 8; (dose: 1.0 mg/kg/injection, schedule: Q03HX024 (oral), vehicle: lactic acid) 8 of 8; (dose: 1.0 mg/kg/injection, schedule: Q04DX003 (ip), vehicle: other) 5 of 5. For the same molecule, the survivor count is 8 of 8 (dose: 2.0 mg/kg/injection, schedule: Q01DX001 (ip), vehicle: lactic acid); 8 of 8 (dose: 2.0 mg/kg/injection, schedule: Q01DX009 (ip), vehicle: lactic acid); 8 of 8 (dose: 2.0 mg/kg/injection, schedule: Q01DX009 (oral), vehicle: lactic acid); 8 of 8 (dose: 2.0 mg/kg/injection, schedule: Q03HX016 (oral), vehicle: lactic acid); 8 of 8 (dose: 2.0 mg/kg/injection, schedule: Q03HX024 (oral), vehicle: lactic acid); 5 of 5 (dose: 2.0 mg/kg/injection, schedule: Q04DX003 (ip), vehicle: other). Moreover, the survivor count (dose: 2.0 mg/kg/injection, schedule: Q04DX003 (oral), vehicle: lactic acid) is reported as 8 of 8; the survivor count (dose: 4.0 mg/kg/injection, schedule: Q01DX001 (ip), vehicle: lactic acid) was 8 of 8; the survivor count (dose: 4.0 mg/kg/injection, schedule: Q01DX009 (ip), vehicle: lactic acid) is given as 8 of 8; the survivor count (dose: 4.0 mg/kg/injection, schedule: Q01DX009 (oral), vehicle: lactic acid) was 8 of 8; the survivor count (dose: 4.0 mg/kg/injection, schedule: Q03HX016 (oral), vehicle: lactic acid) is 3 of 8; the survivor count (dose: 4.0 mg/kg/injection, schedule: Q03HX024 (oral), vehicle: lactic acid) is given as 4 of 8. Besides, the survivor count reads like this: (dose: 4.0 mg/kg/injection, schedule: Q04DX003 (ip), vehicle: other) 5 of 5; (dose: 4.0 mg/kg/injection, schedule: Q04DX003 (oral), vehicle: lactic acid) 8 of 8; (dose: 7.0 mg/kg/injection, schedule: Q04DX003 (ip), vehicle: lactic acid) 9 of 10 and 10 of 10; (dose: 8.0 mg/kg/injection, schedule: Q01DX001 (ip), vehicle: lactic acid) 8 of 8; (dose: 8.0 mg/kg/injection, schedule: Q01DX001 (oral), vehicle: lactic acid) 8 of 8; (dose: 8.0 mg/kg/injection, schedule: Q01DX009 (ip), vehicle: lactic acid) 8 of 8. Also, the survivor count (dose: 8.0 mg/kg/injection, schedule: Q01DX009 (oral), vehicle: lactic acid) is 8 of 8; the survivor count (dose: 8.0 mg/kg/injection, schedule: Q03HX016 (oral), vehicle: lactic acid) is listed as 0 of 8; the survivor count (dose: 8.0 mg/kg/injection, schedule: Q03HX024 (oral), vehicle: lactic acid) is listed as 0 of 8; the survivor count (dose: 8.0 mg/kg/injection, schedule: Q04DX003 (ip), vehicle: other) was 5 of 5; the survivor count (dose: 8.0 mg/kg/injection, schedule: Q04DX003 (oral), vehicle: lactic acid) is on record as 8 of 8; the survivor count (dose: 8.0 mg/kg/injection, schedule: Q08DX002 (oral), vehicle: lactic acid) was 8 of 8. For the same molecule, the survivor count by setting is: (dose: 11.0 mg/kg/injection, schedule: Q04DX003 (ip), vehicle: lactic acid) 10 of 10; (dose: 16.0 mg/kg/injection, schedule: Q01DX001 (ip), vehicle: lactic acid) 7 of 8; (dose: 16.0 mg/kg/injection, schedule: Q01DX001 (oral), vehicle: lactic acid) 8 of 8; (dose: 16.0 mg/kg/injection, schedule: Q01DX009 (oral), vehicle: lactic acid) 8 of 8; (dose: 16.0 mg/kg/injection, schedule: Q03HX016 (oral), vehicle: lactic acid) 0 of 8; (dose: 16.0 mg/kg/injection, schedule: Q04DX003 (ip), vehicle: lactic acid) 10 of 10. Besides, the survivor count was 5 of 5 (dose: 16.0 mg/kg/injection, schedule: Q04DX003 (ip), vehicle: other); 8 of 8 (dose: 16.0 mg/kg/injection, schedule: Q04DX003 (oral), vehicle: lactic acid); 8 of 8 (dose: 16.0 mg/kg/injection, schedule: Q08DX002 (oral), vehicle: lactic acid); 6 of 10 and 10 of 10 (dose: 24.0 mg/kg/injection, schedule: Q04DX003 (ip), vehicle: lactic acid); 3 of 8 (dose: 32.0 mg/kg/injection, schedule: Q01DX001 (ip), vehicle: lactic acid); 8 of 8 (dose: 32.0 mg/kg/injection, schedule: Q01DX001 (oral), vehicle: lactic acid). The survivor count by setting is: (dose: 32.0 mg/kg/injection, schedule: Q03HX016 (oral), vehicle: lactic acid) 1 of 8; (dose: 32.0 mg/kg/injection, schedule: Q04DX003 (oral), vehicle: lactic acid) 8 of 8; (dose: 32.0 mg/kg/injection, schedule: Q08DX002 (oral), vehicle: lactic acid) 8 of 8; (dose: 64.0 mg/kg/injection, schedule: Q01DX001 (oral), vehicle: lactic acid) 4 of 8; (dose: 64.0 mg/kg/injection, schedule: Q04DX003 (oral), vehicle: lactic acid) 4 of 8; (dose: 64.0 mg/kg/injection, schedule: Q08DX002 (oral), vehicle: lactic acid) 5 of 8. For the same molecule, the survivor count by setting is: (dose: 128.0 mg/kg/injection, schedule: Q01DX001 (oral), vehicle: lactic acid) 0 of 8; (dose: 128.0 mg/kg/injection, schedule: Q08DX002 (oral), vehicle: lactic acid) 2 of 8.

For the molecule `O=c1[nH]c(=O)n(C2CC(O)C(CO)O2)cc1I` (stereo unspecified), the survivor count (dose: 600.0 mg/kg/injection, schedule: Q## X002 (ip), vehicle: carboxymethylcellulose (CMC)) was 8 of 8.

On to `NCCc1ccc(O)c(O)c1`, for which the survivor count runs as follows: (dose: 40.0 mg/kg/injection, schedule: Q01DX009 (sc), vehicle: saline) 8 of 8; (dose: 80.0 mg/kg/injection, schedule: Q01DX009 (ip), vehicle: saline) 7 of 8; (dose: 80.0 mg/kg/injection, schedule: Q01DX009 (oral), vehicle: saline) 8 of 8; (dose: 80.0 mg/kg/injection, schedule: Q01DX009 (sc), vehicle: saline) 8 of 8; (dose: 160.0 mg/kg/injection, schedule: Q01DX009 (ip), vehicle: saline) 7 of 8; (dose: 160.0 mg/kg/injection, schedule: Q01DX009 (oral), vehicle: saline) 8 of 8. Moreover, the survivor count is 8 of 8 (dose: 160.0 mg/kg/injection, schedule: Q01DX009 (sc), vehicle: saline); 8 of 8 (dose: 320.0 mg/kg/injection, schedule: Q01DX009 (ip), vehicle: saline); 8 of 8 (dose: 320.0 mg/kg/injection, schedule: Q01DX009 (oral), vehicle: saline); 8 of 8 (dose: 320.0 mg/kg/injection, schedule: Q01DX009 (sc), vehicle: saline); 6 of 8 (dose: 640.0 mg/kg/injection, schedule: Q01DX009 (ip), vehicle: saline); 8 of 8 (dose: 640.0 mg/kg/injection, schedule: Q01DX009 (oral), vehicle: saline). Besides, the survivor count (dose: 640.0 mg/kg/injection, schedule: Q01DX009 (sc), vehicle: saline) is 6 of 8.

Consider `O=C[C@@H](CO)O[C@H](C=O)c1c[nH]c(=O)[nH]c1=O`, for which the survivor count reads like this: (dose: 20.0 mg/kg/injection, schedule: Q01DX009 (ip), vehicle: saline) 10 of 10; (dose: 25.0 mg/kg/injection, schedule: Q01DX009 (ip), vehicle: saline) 10 of 10; (dose: 30.0 mg/kg/injection, schedule: Q01DX009 (ip), vehicle: saline) 10 of 10; (dose: 35.0 mg/kg/injection, schedule: Q01DX009 (ip), vehicle: saline) 10 of 10; (dose: 40.0 mg/kg/injection, schedule: Q01DX009 (ip), vehicle: saline) 10 of 10; (dose: 80.0 mg/kg/injection, schedule: Q04DX003 (ip), vehicle: saline) 10 of 10. In addition, the survivor count runs as follows: (dose: 100.0 mg/kg/injection, schedule: Q04DX003 (ip), vehicle: saline) 10 of 10; (dose: 120.0 mg/kg/injection, schedule: Q04DX003 (ip), vehicle: saline) 9 of 9; (dose: 140.0 mg/kg/injection, schedule: Q04DX003 (ip), vehicle: saline) 10 of 10.

Consider `O=c1ccn(C2OC(CO)C(O)C2O)c(=O)[nH]1` (stereo unspecified), for which the survivor count runs as follows: (dose: 0.2 mg/kg/injection, schedule: Q01DX011 (adlb), vehicle: water) 10 of 10; (dose: 2.0 mg/kg/injection, schedule: Q01DX011 (adlb), vehicle: water) 10 of 10.

For the molecule `CO[C@@]12[C@H](COC(N)=O)C3=C(C(=O)C(C)=C(N)C3=O)N1C[C@@H]1N[C@@H]12`, the survivor count runs as follows: (dose: 0.5 mg/kg/injection, schedule: Q04DX003 (ip), vehicle: saline) 4 of 4; (dose: 0.9 mg/kg/injection, schedule: Q01DX010 (ip), vehicle: saline) 4 of 4; (dose: 1.0 mg/kg/injection, schedule: Q04DX003 (ip), vehicle: saline) 4 of 4; (dose: 1.5 mg/kg/injection, schedule: Q01DX010 (ip), vehicle: saline) 4 of 4; (dose: 2.0 mg/kg/injection, schedule: Q04DX003 (ip), vehicle: saline) 4 of 4; (dose: 4.0 mg/kg/injection, schedule: Q04DX003 (ip), vehicle: saline) 4 of 4.
